Reference: ChEMBL document CHEMBL5357056, “Precursor-Directed Biosynthesis of Antialgal Fluorinated Bacillamide Derivatives in Bacillus atrophaeus” (J Nat Prod, 2024)

Legend:
Karenia brevis = assay: Anti-phytoplankton activity against Karenia brevis assessed as change in chlorophyll a level measured after 72 hrs by fluorescence based analysis; assay type: functional, organism-based
[1] = Anti-phytoplankton activity against Skeletonema grethae assessed as reduction in chlorophyll a level measured after 72 hrs by fluorescence based analysis; assay type: functional, organism-based

IC50 (Karenia brevis): 140 µM
IC50 [1]: 23.2 µM
SMILES: CC(=O)NCCc1c[nH]c2cc(F)ccc12
